Measured values published in PubChem BioAssay AID1487 (National Center for Advancing Translational Sciences (NCATS), 2009).
This is one part of the list. Shown are side measurements of this screen, not its main read-out; they come without a call. Most of these compounds were active or inconclusive in the main read-out, so they are no random draw. The note in brackets gives the kind of curve behind each potency; many fits are weak.

Assay: qHTS Assay for Modulators of Lamin A Splicing
Conditions: HeLa LMNA splicing GFP/RFP minigene ratio, 48 h
How it was run: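 Read-out is the ratio of GFP to DsRed2 object intensity, acquired by 488 nm laser-scanning cytometry on HeLa lamin A-EGFP minigene reporter cells. Compound incubation 48 hrs at 37 °C in Opti-MEM with 2% FBS; DMSO 0.5% final.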

[1] = measured here: RFP viability control channel
[2] = measured here: GFP splicing reporter channel

Structure (SMILES): O=C(NC(=S)Nc1ccccc1N1CCCC1)c1ccc(-c2cccc([N+](=O)[O-])c2)o1
- AC50 [1]: 15.8 µM [falling, single point]

Structure (SMILES): COc1ccc2[nH]cc(C3N4CC5(C)CN3CC(C)(C4)C5=O)c2c1 (configuration not stated)
- AC50 [2]: 3.98 µM [falling, single point]
- AC50 [1]: 1.78 µM [falling, partial curve, poor fit]

Structure (SMILES): COc1ccc(NS(=O)(=O)c2ccc(OC)c(NC(=O)CCC3CCCCC3)c2)cc1
- AC50 [2]: 12.6 µM [rising, partial curve, poor fit]
- AC50 [1]: 35.5 µM [rising, single point]

Structure (SMILES): CCc1nnc(N2C(=N)SCC2=O)s1
- AC50 [2]: 0.0112 µM [falling, full curve, poor fit]

Structure (SMILES): ClCc1nnc(-c2ccccc2)o1
- AC50 [1]: 22.4 µM [rising, partial curve]

Structure (SMILES): COc1ccc(/C=C/C(=O)c2ccc[nH]2)c(OC)c1OC
- AC50 [1]: 7.08 µM [rising, partial curve, poor fit]

Structure (SMILES): O=C(NCc1nc(-c2ccccc2)no1)c1cccs1
- AC50 [2]: 14.1 µM [rising, single point]
- AC50 [1]: 20 µM [rising, single point]

Structure (SMILES): O=C(CCl)N=c1sccn1Cc1ccc(Cl)cc1Cl
- AC50 [2]: 0.0178 µM [rising, full curve, poor fit]

Structure (SMILES): CC1CCN(c2ncnc3ccccc23)CC1
- AC50 [2]: 20 µM [rising, single point]
- AC50 [1]: 15.8 µM [rising, single point]

Structure (SMILES): CCOc1ccc(NC(=O)C(=O)N/N=C\c2ccc(CNS(=O)(=O)c3ccccc3)o2)cc1
- AC50 [1]: 35.5 µM [falling, single point]

Structure (SMILES): Cc1sc(NC(=O)CN(Cc2ccccc2)C(=O)C(C)C)c(C(N)=O)c1C
- AC50 [2]: 11.2 µM [rising, single point]
- AC50 [1]: 12.6 µM [rising, partial curve]

Structure (SMILES): O=C(Nc1ccc(O)cc1)c1c(O)c2c([nH]c1=O)CCCC2
- AC50 [1]: 0.0316 µM [rising, full curve, poor fit]

Structure (SMILES): N#CCCn1cc(C(=O)N2CCOCC2)c(-c2ccc3c(c2)OCCO3)n1
- AC50 [2]: 11.2 µM [rising, partial curve]

Structure (SMILES): CCc1cccc(C)c1NC(=O)COC(=O)c1c2c(nc3ccccc13)/C(=C\c1cccs1)CCC2
- AC50 [2]: 10 µM [rising, partial curve]
- AC50 [1]: 7.94 µM [rising, partial curve, poor fit]

Structure (SMILES): Cc1nn(Cc2ccccc2)c(Cl)c1C(=O)OCC(=O)NC(=O)NC12CC3CC(CC(C3)C1)C2
- AC50 [1]: 12.6 µM [rising, partial curve]

Structure (SMILES): Cc1n[nH]c(C)c1N1C(=O)c2cccc3c(N4CCCCCC4)ccc(c23)C1=O
- AC50 [2]: 22.4 µM [falling, single point]
- AC50 [1]: 12.6 µM [falling, partial curve]

Structure (SMILES): Cn1c(Cc2ccccc2)[n+](C)c2ccccc21
- AC50 [1]: 0.112 µM [falling, full curve, poor fit]

Structure (SMILES): O=C(CNc1cccc2ccccc12)N/N=C/c1ccc([N+](=O)[O-])o1
- AC50 [2]: 3.16 µM [falling, partial curve]
- AC50 [1]: 6.31 µM [rising, single point]

Structure (SMILES): COc1cccc(CNC(=O)CCC2CCCN(C(=O)c3ccc(OC)c(F)c3)C2)c1 (configuration not stated)
- AC50 [2]: 35.5 µM [falling, partial curve, poor fit]
- AC50 [1]: 22.4 µM [falling, partial curve]

Structure (SMILES): COc1cccc(CN2CCN(Cc3nc4c(s3)CCCC4)CC2CCO)c1 (configuration not stated)
- AC50 [2]: 3.55 µM [rising, partial curve]

Structure (SMILES): Cn1c(NCc2ccco2)nc2c1c(=O)n(Cc1ccc(Br)cc1)c(=O)n2C
- AC50 [2]: 5.01 µM [rising, single point]
- AC50 [1]: 15.8 µM [rising, single point]

Structure (SMILES): O=C(NCCCn1ccnc1)c1cc(-c2ccccc2)on1
- AC50 [2]: 2 µM [falling, partial curve, poor fit]
- AC50 [1]: 0.447 µM [falling, full curve, poor fit]

Structure (SMILES): O=C(/C=C/c1ccccc1)NCCSCc1ccccc1Cl
- AC50 [1]: 20 µM [rising, single point]

Structure (SMILES): Cc1ccc(NC(=O)CSc2ncnc3ccccc23)cc1S(=O)(=O)N1CCCCCC1
- AC50 [1]: 12.6 µM [rising, single point]

Structure (SMILES): Nc1nc(CN2CCN(Cc3ccccc3)CC2)nc(N2CCCc3ccccc32)n1
- AC50 [2]: 0.0126 µM [falling, full curve, poor fit]
- AC50 [1]: 31.6 µM [falling, partial curve]

Structure (SMILES): O=C(CSc1ccc(Cl)cc1)c1ccco1
- AC50 [2]: 20 µM [rising, single point]

Structure (SMILES): CCN1CCCC(CO)(Cc2ccccc2)C1 (configuration not stated)
- AC50 [2]: 2.51 µM [rising, partial curve]

Structure (SMILES): CC(Sc1ncc(S(=O)(=O)c2ccc(C(C)C)cc2)c(N)n1)C(=O)Nc1ccccc1 (configuration not stated)
- AC50 [2]: 0.794 µM [falling, full curve]
- AC50 [1]: 0.794 µM [falling, full curve, poor fit]

Structure (SMILES): CC(C)(C)c1ccc(CN2C3=NCCCN3c3ccccc32)cc1
- AC50 [1]: 11.2 µM [rising, partial curve]

Structure (SMILES): CCOC(=O)c1c(C)nc(C)c(C(=O)OCC)c1-c1ccccc1
- AC50 [1]: 6.31 µM [rising, partial curve, poor fit]

Structure (SMILES): CCOC(=O)c1c(NC(NC(=O)C(C)C)C(Cl)(Cl)Cl)sc2c1CCC2 (configuration not stated)
- AC50 [2]: 14.1 µM [rising, single point]
- AC50 [1]: 22.4 µM [rising, single point]

Structure (SMILES): O=C(CSc1ncnc2scc(-c3ccccc3)c12)NCc1ccc2c(c1)OCO2
- AC50 [2]: 7.08 µM [rising, partial curve]
- AC50 [1]: 14.1 µM [rising, partial curve]

Structure (SMILES): Cn1c(SCC(=O)Nc2cccc(C(=O)O)c2)nnc1-c1cc2cc(Br)ccc2o1
- AC50 [2]: 0.398 µM [rising, full curve, poor fit]

Structure (SMILES): Cc1ccc(N2CC(O)=C(c3nc4ccccc4c(=O)[nH]3)C2=N)cc1C
- AC50 [2]: 0.00891 µM [rising, full curve, poor fit]
- AC50 [1]: 0.0178 µM [rising, full curve, poor fit]

Structure (SMILES): Cc1cccc(CSc2nc(=O)c3c(n2C)NC(=O)CC3c2cccc(O)c2)c1 (configuration not stated)
- AC50 [2]: 0.01 µM [rising, full curve, poor fit]

Structure (SMILES): O=C(NCCNC[C@@H](O)COc1ccc(O)cc1)N1CCOCC1
- AC50 [2]: 3.16 µM [falling, single point]
- AC50 [1]: 3.16 µM [falling, single point]

Structure (SMILES): CCc1ccccc1NC(=O)CCCSc1nc2ccccc2s1
- AC50 [2]: 31.6 µM [rising, single point]
- AC50 [1]: 25.1 µM [rising, partial curve]

Structure (SMILES): CC(C)(C)c1ccc(NC(=O)COc2ccc(-n3ccnc3)cc2)cc1
- AC50 [1]: 14.1 µM [rising, partial curve]

Structure (SMILES): COC(=O)C1=C(C(=O)OC)[C@@H]2N(Cc3ccccc3)c3ccccc3[C@@]23C[C@@H](C(=O)OC)N(S(=O)(=O)c2ccc(Br)cc2)C3=N1
- AC50 [1]: 0.00631 µM [falling, full curve, poor fit]

Structure (SMILES): O=C(Nc1cc2c(cc1Br)OCCCO2)c1ccccc1
- AC50 [2]: 31.6 µM [rising, single point]

Structure (SMILES): CC1Cc2nc(SCC(=O)Nc3ccc4c(c3)OCCO4)n(C)c(=O)c2S1 (configuration not stated)
- AC50 [2]: 14.1 µM [rising, single point]
- AC50 [1]: 14.1 µM [rising, single point]

Structure (SMILES): CCC(C(=O)NCc1ccc2c(c1)CCN2C(=O)c1ccc(F)cc1)c1ccccc1 (configuration not stated)
- AC50 [2]: 35.5 µM [falling, single point]
- AC50 [1]: 35.5 µM [falling, single point]

Structure (SMILES): Cc1ncc(CO)c(/C=N/NC(=O)c2ccc(O)cc2)c1O
- AC50 [1]: 0.251 µM [rising, full curve, poor fit]

Structure (SMILES): CCOC(=O)/C=C/S(=O)(=O)c1ccc(NC(C)=O)cc1
- AC50 [1]: 17.8 µM [falling, single point]

Structure (SMILES): Cc1ccccc1Nc1nc(N)nc(CSc2nc3ccccc3c(=O)n2C)n1
- AC50 [1]: 22.4 µM [rising, single point]

Structure (SMILES): CCc1nc2ccc(C(=O)NCCc3ccc(OC)cc3OC)cc2nc1CC
- AC50 [1]: 1.12 µM [falling, full curve, poor fit]

Structure (SMILES): CCOc1ccc(C(=O)NCCn2cc(SCC(=O)Nc3cc(C)on3)c3ccccc32)cc1
- AC50 [1]: 5.62 µM [falling, single point]

Structure (SMILES): Cn1cc(CC(=O)NCCCN2CCOCC2)c2ccccc21
- AC50 [2]: 0.631 µM [rising, partial curve, poor fit]
- AC50 [1]: 1.26 µM [rising, single point]

Structure (SMILES): Cc1ccc(CNC(=O)CCc2ccc(S(=O)(=O)NC3CCCCC3)cc2)cc1
- AC50 [1]: 3.55 µM [rising, single point]

Structure (SMILES): O/N=C1/CCc2cccc3cccc1c23
- AC50 [2]: 28.2 µM [rising, single point]
- AC50 [1]: 35.5 µM [rising, single point]

Structure (SMILES): Cn1nc(C(=O)OCC(=O)c2ccc[nH]2)c2ccccc2c1=O
- AC50 [1]: 0.0631 µM [falling, full curve, poor fit]

Structure (SMILES): COc1ccc(NCC(=O)N/N=C/C=C/c2ccccc2[N+](=O)[O-])cc1
- AC50 [1]: 3.16 µM [rising, single point]

Structure (SMILES): CCOC(=O)c1c(C)[nH]c(C)c1S(=O)(=O)N(C)CC(=O)N1CCN(c2cccc(Cl)c2)CC1
- AC50 [2]: 22.4 µM [falling, partial curve]

Structure (SMILES): COc1ccc(OC)c(NC(=O)c2cccc(C)c2[N+](=O)[O-])c1
- AC50 [2]: 0.0251 µM [falling, full curve, poor fit]
- AC50 [1]: 0.0224 µM [falling, full curve, poor fit]
